According to PubChem BioAssay AID2685 (National Center for Advancing Translational Sciences (NCATS), 2010):
The list shows a part of the results. The main result of the screen is listed elsewhere. These columns were measured beside it and carry no call. The list favours compounds with an active or inconclusive main result. The note in brackets gives the kind of curve behind each potency; many fits are weak.

Experiment: qHTS Assay for Lipid Storage Modulators in Drosophila S3 Cells;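 on cell number change: cells counted by Cell Tracker Red CMTPX staining in the red channel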
Conditions: BODIPY lipid droplet fluorescence, 18-24 h; for cell number change: measured here: cell count max response, cells fed with added oleic acid
Outline: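 Drosophila S3 cells loaded with oleic acid (400 uM, as added) and compounds at several concentrations; lipid droplets imaged by 488-nm laser-scanning cytometry, 500–530 nm intensity and object ratio to cell channel. Percent activity normalized to 20 uM Triacsin C.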

[1] = measured here: lipid fluorescence (Fed channel) AC50, cells fed with added oleic acid
[2] = measured here: cell number channel AC50, cells fed with added oleic acid

Row | Structure (SMILES) | AC50 [1] | cell number change [%] | AC50 [2]
1 | O=C(COc1ccc(Cl)cc1Cl)N/N=C1\CCCc2ccccc21 | 6.51 µM [falling, single point] |  | 
2 | O=C(Cn1c(=O)oc2cc(S(=O)(=O)N3CCCC3)ccc21)NC1CCCc2ccccc21 (stereo not drawn) | 2.06 µM [falling, partial curve] |  | 
3 | COc1ccc(OC)c(NC(=O)CSc2nnc(Cn3c(=O)sc4ccccc43)n2C)c1 | 16.4 µM [falling, partial curve] | -39.2 | 20.6 µM [falling, partial curve]
4 | COc1ccccc1N1CCN(Cc2c[nH]c3ccccc23)CC1 | 0.00517 µM [falling, full curve, poor fit] | -0.558 | 
5 | CCN(CC)S(=O)(=O)c1cccc(NC(=O)COc2ccc(C#N)cc2OC)c1 |  | 44 | 6.51 µM [rising, partial curve]
6 | CCn1cc(CN2CCCC(C(=O)Nc3ccc(-c4nc5ccccc5[nH]4)cc3)C2)c(C)n1 (stereo not drawn) |  | -11.1 | 
7 | CCOC(=O)C1CCCCN1Cc1cccc(OCc2ccccc2)c1 (stereo not drawn) | 29.1 µM [rising, single point] | -6.56 | 
8 | O=C(NCc1cccc(C(F)(F)F)c1)N1CCN(S(=O)(=O)c2ccccc2F)CC1 |  | 7.83 | 
9 | COC(=O)c1[nH]nc2c1C(=O)N(Cc1ccccc1)C2=O | 6.51 µM [falling, single point] | -6.18 | 2.31 µM [falling, single point]
10 | O=CN1CCN(C(=O)c2cc3cc(Cl)ccc3[nH]2)CC1 | 0.58 µM [rising, single point] | 22.9 | 0.411 µM [rising, full curve, poor fit]
11 | O=C(/C=C/c1cccc(Br)c1)c1ccc2c(c1)OCO2 |  | -14.1 | 
12 | CCOc1ccc(S(=O)(=O)NCc2ccccc2Cl)cc1C(N)=O | 0.13 µM [rising, full curve, poor fit] | -5.01 | 
13 | COc1ccc(-c2nnn(CC(=O)N(CCN3CCOCC3)C(C(=O)NC3CCCC3)c3ccco3)n2)cc1 (stereo not drawn) | 4.61 µM [rising, full curve, poor fit] | 25.2 | 
14 | CCc1nnc(NS(=O)(=O)c2ccc(NC(=O)c3cccc(OC)c3)cc2)s1 |  | -1.98 | 
15 | CCOC(=O)c1ccc(NC(=O)Nn2cnnc2)cc1 |  | 41.6 | 5.17 µM [rising, partial curve, poor fit]
16 | CCCCCCC1CC(=O)NC(=S)N1 (stereo not drawn) | 0.231 µM [rising, full curve, poor fit] | 63.6 | 5.8 µM [rising, full curve, poor fit]
17 | CC(=O)c1ccc(S(=O)(=O)N2CCC(c3nc4ccccc4[nH]3)CC2)cc1 | 0.13 µM [falling, full curve] | 5.83 | 
18 | c1ccc2sc(-c3ccc4c(c3)OCO4)nc2c1 | 10.3 µM [rising, partial curve, poor fit] | 0.711 | 
19 | CC1CN(C(=O)C(C)N2CCN(c3ccccc3Cl)CC2)CC(C)O1 (stereo not drawn) |  |  | 0.58 µM [falling, single point]
20 | CCOC(=O)c1c(NC(=O)CSc2nnc(-c3c[nH]c4ccccc34)n2CCOC)sc2c1CCCCC2 | 2.06 µM [rising, partial curve] |  | 

Row | Structure (SMILES) | AC50 [1] | cell number change [%] | AC50 [2]
21 | CC(=O)c1ccc(OC(=O)c2cc3ccccc3oc2=O)cc1 | 29.1 µM [rising, partial curve, poor fit] | 72.3 | 0.116 µM [rising, full curve]
22 | CSc1nccc(Oc2cncc(Cl)c2)n1 | 29.1 µM [falling, single point] | -52.8 | 23.1 µM [falling, single point]
23 | O=C(Nc1cc([N+](=O)[O-])ccc1F)c1ccc2ccccc2c1 | 0.82 µM [rising, single point] |  | 
24 | COc1ccc(CNS(=O)(=O)NCc2ccccc2)cc1OC |  | 55.1 | 32.6 µM [rising, single point]
25 | O=C(CSc1ccc(-c2ccco2)nn1)N1CCCC1 |  | 3.25 | 0.461 µM [falling, single point]
26 | O=C(CSCc1ccccc1F)NCc1ccccc1 |  | 15.5 | 
27 | CC1CCCN(CC(O)COCc2ccccc2)C1 (stereo not drawn) | 0.206 µM [falling, full curve] | 13.7 | 
28 | O=C(NCc1ccc(F)cc1)C1CCN(S(=O)(=O)N2CCOCC2)CC1 |  | 24.9 | 
29 | O=C(c1cccc(S(=O)(=O)N2CCCC2)c1)N1CCCC(C(F)(F)F)C1 (stereo not drawn) | 1.46 µM [rising, partial curve] | 50 | 29.1 µM [rising, single point]
30 | COc1cc(C(=O)NNC(=O)c2cccn2C)cc(OC)c1OC | 0.731 µM [rising, single point] | -5.38 | 
31 | O=C(COc1cccc(F)c1)NNC(=O)Cc1ccc(Br)cc1 | 0.146 µM [falling, full curve, poor fit] | -9.33 | 
32 | N#C/C(=C\c1cc2ccccc2nc1N1CCOCC1)C(=O)Nc1ccc(N2CCOCC2)cc1 |  | -42.6 | 2.91 µM [rising, single point]
33 | Cc1ccc(C)c(S(=O)(=O)Nc2ccc(S(=O)(=O)Nc3ncccn3)cc2)c1 | 29.1 µM [falling, single point] | 0.807 | 
34 | CC1CCC(NC(=O)c2cc3ccccc3cc2O)CC1 (stereo not drawn) |  | -9.99 | 
35 | CCOc1ccc(S(=O)(=O)N2CCCCC2)c(C)c1C | 3.26 µM [falling, full curve] | -13.1 | 
36 | C/C(=N/NC(=O)c1nnn(-c2nonc2N)c1COc1ccccc1)c1ccccc1 |  | 56.6 | 1.64 µM [rising, partial curve, poor fit]
37 | COC(=O)C1(C#N)C(c2ccccc2)C1(C(=O)OC)C(=O)OC (stereo not drawn) | 6.51 µM [falling, single point] |  | 3.66 µM [falling, partial curve]
38 | CCOP(=O)(OCC)c1nc(-c2ccc(C)cc2)oc1NCc1ccccc1 |  | -2.33 | 
39 | CC12CCC(C(=O)N(CSC(=S)N/N=C\c3ccccc3Cl)C1=O)C2(C)C (stereo not drawn) | 29.1 µM [rising, single point] | -20.9 | 
40 | COc1ccc(S(=O)(=O)N2CCOCC2)cc1N(C)S(=O)(=O)c1ccc(C)cc1 |  | -5.28 | 

3 structures already listed, ordered by heavy-atom count, low to high.
Row | Structure (SMILES) | AC50 [1] | cell number change [%] | AC50 [2]
23 | O=C(Nc1cc([N+](=O)[O-])ccc1F)c1ccc2ccccc2c1 | 0.82 µM [rising, single point] |  | 
29 | O=C(c1cccc(S(=O)(=O)N2CCCC2)c1)N1CCCC(C(F)(F)F)C1 (stereo not drawn) | 1.46 µM [rising, partial curve] | 50 | 29.1 µM [rising, single point]
32 | N#C/C(=C\c1cc2ccccc2nc1N1CCOCC1)C(=O)Nc1ccc(N2CCOCC2)cc1 |  | -42.6 | 2.91 µM [rising, single point]
